From publication PMC9239266

Chains of the proteins cited; added tags and fusions are not shown.
UniProt P27482: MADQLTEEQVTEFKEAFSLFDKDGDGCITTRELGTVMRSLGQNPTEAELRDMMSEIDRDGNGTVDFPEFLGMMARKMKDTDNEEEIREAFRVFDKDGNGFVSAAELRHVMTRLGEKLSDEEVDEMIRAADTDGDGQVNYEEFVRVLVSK

Molecular target: T1, Flag-RFP-CopC (full-length, WT) (Chromobacterium violaceum) (UniProt Q7NWF2)
T1 sequence: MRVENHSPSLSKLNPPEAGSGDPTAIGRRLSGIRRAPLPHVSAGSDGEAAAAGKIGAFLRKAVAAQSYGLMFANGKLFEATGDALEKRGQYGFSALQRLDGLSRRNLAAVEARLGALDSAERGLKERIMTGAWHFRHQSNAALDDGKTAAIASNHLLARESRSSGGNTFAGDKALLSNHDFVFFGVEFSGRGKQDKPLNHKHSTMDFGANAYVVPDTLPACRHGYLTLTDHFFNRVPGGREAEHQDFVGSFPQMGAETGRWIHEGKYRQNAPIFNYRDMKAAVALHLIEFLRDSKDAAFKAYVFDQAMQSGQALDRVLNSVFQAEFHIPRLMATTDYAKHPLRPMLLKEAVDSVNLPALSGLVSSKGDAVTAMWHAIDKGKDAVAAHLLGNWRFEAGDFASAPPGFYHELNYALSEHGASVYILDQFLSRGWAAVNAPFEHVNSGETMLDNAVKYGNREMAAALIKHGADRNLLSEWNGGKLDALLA
Test: affinity purification with mass spectrometry

CaM-like protein 3 (endogenous) (from UniProt P27482 1-149)
binding: binds

These are yes or no findings as the source states them, for the method shown. In cells and extracts the contact can be indirect. These calls come from enrichment with a bait or labelling near it, and not all partners need be listed. Sequences can lack the tags named with a protein.
